Measured values: publication doi:10.1101/2020.03.04.975474
Where two headings read alike, the source gives them in different places. No constants are given. Whether binding was seen depends on the method and setting. Binding seen in cells or lysates may run through a third protein. Here binding means that the protein was enriched with, or labelled near, the bait; the list need not be complete. One block for each molecule: values may come before it.

Chains of the proteins cited; added tags and fusions are not shown. Residues count along the entry.
UniProt P14625, residues 22-803: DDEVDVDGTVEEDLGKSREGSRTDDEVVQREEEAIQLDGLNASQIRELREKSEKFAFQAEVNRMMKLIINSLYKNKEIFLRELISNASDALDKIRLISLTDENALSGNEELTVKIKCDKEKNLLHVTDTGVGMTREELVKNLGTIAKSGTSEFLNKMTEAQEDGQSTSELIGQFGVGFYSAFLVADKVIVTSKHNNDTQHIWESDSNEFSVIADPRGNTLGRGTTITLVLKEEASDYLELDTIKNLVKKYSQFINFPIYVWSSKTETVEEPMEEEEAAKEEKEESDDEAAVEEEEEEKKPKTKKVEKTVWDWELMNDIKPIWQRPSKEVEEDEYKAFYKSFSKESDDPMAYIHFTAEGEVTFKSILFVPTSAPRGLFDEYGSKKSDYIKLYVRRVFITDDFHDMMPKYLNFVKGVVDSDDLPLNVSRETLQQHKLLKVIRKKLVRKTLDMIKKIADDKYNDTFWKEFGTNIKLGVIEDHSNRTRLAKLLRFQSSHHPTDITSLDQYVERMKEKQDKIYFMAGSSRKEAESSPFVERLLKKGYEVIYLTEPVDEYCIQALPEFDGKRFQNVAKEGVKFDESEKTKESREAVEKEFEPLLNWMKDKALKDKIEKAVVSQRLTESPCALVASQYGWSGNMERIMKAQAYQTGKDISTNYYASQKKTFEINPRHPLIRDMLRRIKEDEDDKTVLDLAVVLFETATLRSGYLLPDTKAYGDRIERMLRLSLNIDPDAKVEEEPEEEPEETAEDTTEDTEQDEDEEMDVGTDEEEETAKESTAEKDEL
UniProt P61011: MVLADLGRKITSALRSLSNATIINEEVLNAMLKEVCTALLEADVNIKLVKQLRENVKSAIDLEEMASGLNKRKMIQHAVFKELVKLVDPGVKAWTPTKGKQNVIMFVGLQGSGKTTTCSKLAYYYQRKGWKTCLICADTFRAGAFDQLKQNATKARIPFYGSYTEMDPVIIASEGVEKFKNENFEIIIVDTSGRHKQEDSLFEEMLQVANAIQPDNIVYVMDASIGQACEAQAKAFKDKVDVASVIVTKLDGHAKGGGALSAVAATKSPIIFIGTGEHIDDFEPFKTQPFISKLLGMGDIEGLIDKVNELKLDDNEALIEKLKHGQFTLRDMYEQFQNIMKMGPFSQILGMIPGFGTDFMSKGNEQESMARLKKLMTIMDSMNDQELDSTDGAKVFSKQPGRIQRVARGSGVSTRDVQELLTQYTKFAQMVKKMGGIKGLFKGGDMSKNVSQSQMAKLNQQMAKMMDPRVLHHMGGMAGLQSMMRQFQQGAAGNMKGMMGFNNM
UniProt P11021, residues 19-654: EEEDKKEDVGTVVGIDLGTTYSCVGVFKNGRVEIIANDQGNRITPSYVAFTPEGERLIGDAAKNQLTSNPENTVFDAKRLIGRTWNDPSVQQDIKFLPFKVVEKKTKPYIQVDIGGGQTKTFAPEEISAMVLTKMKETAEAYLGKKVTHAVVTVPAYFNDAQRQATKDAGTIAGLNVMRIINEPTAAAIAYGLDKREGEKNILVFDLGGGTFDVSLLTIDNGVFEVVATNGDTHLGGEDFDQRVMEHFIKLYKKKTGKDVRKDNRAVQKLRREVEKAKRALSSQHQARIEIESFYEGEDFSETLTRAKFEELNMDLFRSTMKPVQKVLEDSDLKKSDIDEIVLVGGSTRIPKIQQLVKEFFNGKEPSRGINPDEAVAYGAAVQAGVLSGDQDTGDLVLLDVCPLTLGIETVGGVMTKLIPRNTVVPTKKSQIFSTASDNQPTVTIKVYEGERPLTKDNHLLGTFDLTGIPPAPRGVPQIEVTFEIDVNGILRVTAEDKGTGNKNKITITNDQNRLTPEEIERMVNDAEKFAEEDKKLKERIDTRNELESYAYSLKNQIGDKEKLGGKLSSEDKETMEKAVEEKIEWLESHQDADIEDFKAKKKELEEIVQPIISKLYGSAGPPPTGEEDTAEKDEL

Assays:
SEC62-BirA reporter [1] = molecular target: T1, SEC62-BirA reporter (UniProt Q99442); assay: proximity labelling
T1 sequence: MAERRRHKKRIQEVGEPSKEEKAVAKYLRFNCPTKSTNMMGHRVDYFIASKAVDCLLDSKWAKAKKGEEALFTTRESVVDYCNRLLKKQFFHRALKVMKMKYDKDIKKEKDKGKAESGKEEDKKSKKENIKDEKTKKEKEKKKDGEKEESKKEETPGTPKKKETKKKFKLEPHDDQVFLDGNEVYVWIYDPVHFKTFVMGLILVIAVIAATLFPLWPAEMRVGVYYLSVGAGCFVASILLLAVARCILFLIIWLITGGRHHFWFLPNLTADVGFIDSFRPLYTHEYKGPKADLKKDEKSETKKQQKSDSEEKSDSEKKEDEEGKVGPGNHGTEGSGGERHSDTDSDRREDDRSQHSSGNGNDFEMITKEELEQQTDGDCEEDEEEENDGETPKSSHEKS

LRRC59-BirA reporter = molecular target: T2, LRRC59-BirA reporter (UniProt Q96AG4); assay: proximity labelling
T2 sequence: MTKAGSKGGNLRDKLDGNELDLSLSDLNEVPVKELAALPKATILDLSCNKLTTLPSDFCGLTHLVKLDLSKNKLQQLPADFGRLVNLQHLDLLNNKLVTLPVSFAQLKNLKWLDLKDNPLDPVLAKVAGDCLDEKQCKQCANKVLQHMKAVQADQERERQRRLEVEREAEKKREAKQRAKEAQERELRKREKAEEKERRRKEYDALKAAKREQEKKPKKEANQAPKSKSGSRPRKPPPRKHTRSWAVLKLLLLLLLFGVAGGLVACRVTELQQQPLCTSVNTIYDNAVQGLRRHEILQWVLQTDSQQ

[2] = molecular target: T3, LRRC59 (native, immunoprecipitated from Caco-2 cells) (human (endogenous in Caco-2)) (UniProt Q96AG4); assay: affinity purification with mass spectrometry
T3 sequence: T2 sequence

RPN1-BirA reporter = molecular target: T4, RPN1-BirA reporter (UniProt P04843); assay: proximity labelling
T4 sequence: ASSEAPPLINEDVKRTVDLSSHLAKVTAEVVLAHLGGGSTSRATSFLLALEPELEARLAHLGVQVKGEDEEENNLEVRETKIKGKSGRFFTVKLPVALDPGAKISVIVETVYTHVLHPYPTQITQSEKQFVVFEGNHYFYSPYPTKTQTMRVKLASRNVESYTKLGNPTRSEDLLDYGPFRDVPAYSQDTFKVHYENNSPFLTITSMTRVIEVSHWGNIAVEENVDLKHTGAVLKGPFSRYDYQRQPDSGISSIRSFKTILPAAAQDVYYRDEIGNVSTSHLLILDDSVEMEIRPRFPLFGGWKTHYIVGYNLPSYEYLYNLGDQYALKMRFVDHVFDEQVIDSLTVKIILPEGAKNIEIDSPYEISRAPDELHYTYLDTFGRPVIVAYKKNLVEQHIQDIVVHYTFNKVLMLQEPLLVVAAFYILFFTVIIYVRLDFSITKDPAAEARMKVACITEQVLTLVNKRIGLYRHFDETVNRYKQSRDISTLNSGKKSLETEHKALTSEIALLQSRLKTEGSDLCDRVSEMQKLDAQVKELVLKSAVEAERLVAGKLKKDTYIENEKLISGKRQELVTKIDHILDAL

SEC62-BirA reporter [3] = molecular target: T1, SEC62-BirA reporter; assay: proximity labelling; remark: listed apart in the source

- binding (RPN1-BirA reporter): binds
B1: SSR1/TRAPα (protein, UniProt P43307 19-286)
chain: VLFRGGPRGLLAVAQDLTEDEETVEDSIIEDEDDEAEVEEDEPTDLVEDKEEEDVSGEPEASPSADTTILFVKGEDFPANNIVKFLVGFTNKGTEDFIVESLDASFRYPQDYQFYIQNFTALPLNTVVPPQRQATFEYSFIPAEPMGGRPFGLVINLNYKDLNGNVFQDAVFNQTVTVIEREDGLDGETIFMYMFLAGLGLLVIVGLHQLLESRKRKRPIQKVEMGTSSQNDVDMSWIPQETLNQINKASPRRLPRKRAQKRSVGSDE

- binding (RPN1-BirA reporter): binds
B2: STT3B (protein, UniProt Q8TCJ2 1-826)
chain: MAEPSAPESKHKSSLNSSPWSGLMALGNSRHGHHGPGAQCAHKAAGGAAPPKPAPAGLSGGLSQPAGWQSLLSFTILFLAWLAGFSSRLFAVIRFESIIHEFDPWFNYRSTHHLASHGFYEFLNWFDERAWYPLGRIVGGTVYPGLMITAGLIHWILNTLNITVHIRDVCVFLAPTFSGLTSISTFLLTRELWNQGAGLLAACFIAIVPGYISRSVAGSFDNEGIAIFALQFTYYLWVKSVKTGSVFWTMCCCLSYFYMVSAWGGYVFIINLIPLHVFVLLLMQRYSKRVYIAYSTFYIVGLILSMQIPFVGFQPIRTSEHMAAAGVFALLQAYAFLQYLRDRLTKQEFQTLFFLGVSLAAGAVFLSVIYLTYTGYIAPWSGRFYSLWDTGYAKIHIPIIASVSEHQPTTWVSFFFDLHILVCTFPAGLWFCIKNINDERVFVALYAISAVYFAGVMVRLMLTLTPVVCMLSAIAFSNVFEHYLGDDMKRENPPVEDSSDEDDKRNQGNLYDKAGKVRKHATEQEKTEEGLGPNIKSIVTMLMLMLLMMFAVHCTWVTSNAYSSPSVVLASYNHDGTRNILDDFREAYFWLRQNTDEHARVMSWWDYGYQIAGMANRTTLVDNNTWNNSHIALVGKAMSSNETAAYKIMRTLDVDYVLVIFGGVIGYSGDDINKFLWMVRIAEGEHPKDIRESDYFTPQGEFRVDKAGSPTLLNCLMYKMSYYRFGEMQLDFRTPPGFDRTRNAEIGNKDIKFKHLEEAFTSEHWLVRIYKVKAPDNRETLDHKPRVTNIFPKQKYLSKKTTKRKRGYIKNKLVFKKGKKISKKTV

- binding (RPN1-BirA reporter): binds
B4: SSR3/TRAPγ (protein, UniProt Q9UNL2 1-185)
chain: MAPKGSSKQQSEEDLLLQDFSRNLSAKSSALFFGNAFIVSAIPIWLYWRIWHMDLIQSAVLYSVMTLVSTYLVAFAYKNVKFVLKHKVAQKREDAVSKEVTRKLSEADNRKMSRKEKDERILWKKNEVADYEATTFSIFYNNTLFLVVVIVASFFILKNFNPTVNYILSISASSGLIALLSTGSK

The next lines start with the molecule.

Molecule: HSP90B1/GRP94 (from UniProt P14625 22-803)
- binding (SEC62-BirA reporter [1]): binds

Molecule: SRP54 (from UniProt P61011 1-504)
- binding (LRRC59-BirA reporter): binds
- binding [2]: binds

Molecule: BiP (from UniProt P11021 19-654)
- binding (SEC62-BirA reporter [1]): binds

B3: PRDX4 (protein, UniProt Q13162 38-271)
chain: WETEERPRTREEECHFYAGGQVYPGEASRVSVADHSLHLSKAKISKPAPYWEGTAVIDGEFKELKLTDYRGKYLVFFFYPLDFTFVCPTEIIAFGDRLEEFRSINTEVVACSVDSQFTHLAWINTPRRQGGLGPIRIPLLSDLTHQISKDYGVYLEDSGHTLRGLFIIDDKGILRQITLNDLPVGRSVDETLRLVQAFQYTDKHGEVCPAGWKPGSETIIPDPAGKLKYFDKLN
- binding (SEC62-BirA reporter [3]): binds
